From the supplement of paper PMC10849652
The other results are listed elsewhere or left out.

Sequences of proteins named here, by UniProt entry; tags and fusion partners are left off. A change or cut given only in a name is not applied to a line headed by its entry.
UniProt Q93050, whole entry, looked up: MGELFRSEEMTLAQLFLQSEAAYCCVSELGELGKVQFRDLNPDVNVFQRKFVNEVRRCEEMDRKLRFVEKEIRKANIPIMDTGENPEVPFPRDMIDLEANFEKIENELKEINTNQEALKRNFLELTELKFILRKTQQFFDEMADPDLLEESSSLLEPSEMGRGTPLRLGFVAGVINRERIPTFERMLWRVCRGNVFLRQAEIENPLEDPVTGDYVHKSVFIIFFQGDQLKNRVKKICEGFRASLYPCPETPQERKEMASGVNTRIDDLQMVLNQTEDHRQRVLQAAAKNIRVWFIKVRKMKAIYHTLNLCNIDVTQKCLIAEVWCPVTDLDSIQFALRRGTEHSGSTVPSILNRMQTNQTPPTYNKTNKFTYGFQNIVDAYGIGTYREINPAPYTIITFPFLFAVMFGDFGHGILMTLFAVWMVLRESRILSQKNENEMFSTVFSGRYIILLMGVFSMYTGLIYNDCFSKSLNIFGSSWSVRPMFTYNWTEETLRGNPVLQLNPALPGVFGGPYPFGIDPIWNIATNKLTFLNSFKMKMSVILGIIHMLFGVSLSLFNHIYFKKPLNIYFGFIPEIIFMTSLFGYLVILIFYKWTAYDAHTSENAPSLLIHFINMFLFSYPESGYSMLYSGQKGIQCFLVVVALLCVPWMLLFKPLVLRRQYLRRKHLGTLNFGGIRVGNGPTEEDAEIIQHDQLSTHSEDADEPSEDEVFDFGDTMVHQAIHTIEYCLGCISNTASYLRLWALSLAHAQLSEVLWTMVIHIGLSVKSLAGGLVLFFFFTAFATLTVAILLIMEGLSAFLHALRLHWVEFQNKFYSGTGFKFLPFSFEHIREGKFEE
UniProt Q9UII2: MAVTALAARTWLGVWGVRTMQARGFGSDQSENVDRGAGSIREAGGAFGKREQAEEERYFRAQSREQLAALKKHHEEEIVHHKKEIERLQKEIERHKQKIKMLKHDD
UniProt Q9UBL3, whole entry, looked up: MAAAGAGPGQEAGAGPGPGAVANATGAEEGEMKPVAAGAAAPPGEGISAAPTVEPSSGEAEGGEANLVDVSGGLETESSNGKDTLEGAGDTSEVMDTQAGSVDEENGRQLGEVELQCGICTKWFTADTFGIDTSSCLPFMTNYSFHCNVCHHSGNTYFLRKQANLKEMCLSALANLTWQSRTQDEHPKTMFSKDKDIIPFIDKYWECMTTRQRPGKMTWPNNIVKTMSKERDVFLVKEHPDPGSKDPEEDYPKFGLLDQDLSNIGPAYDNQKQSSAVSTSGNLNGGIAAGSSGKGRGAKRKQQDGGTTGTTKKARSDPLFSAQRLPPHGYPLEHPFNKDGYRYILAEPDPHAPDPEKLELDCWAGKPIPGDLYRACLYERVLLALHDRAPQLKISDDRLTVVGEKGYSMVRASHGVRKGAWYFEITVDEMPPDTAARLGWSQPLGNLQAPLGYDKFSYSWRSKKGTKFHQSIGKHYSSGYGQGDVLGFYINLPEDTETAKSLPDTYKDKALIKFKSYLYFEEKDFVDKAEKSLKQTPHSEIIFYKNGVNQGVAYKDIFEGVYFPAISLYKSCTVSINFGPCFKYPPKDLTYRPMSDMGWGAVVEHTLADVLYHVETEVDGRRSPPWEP
UniProt P21283, whole entry, looked up: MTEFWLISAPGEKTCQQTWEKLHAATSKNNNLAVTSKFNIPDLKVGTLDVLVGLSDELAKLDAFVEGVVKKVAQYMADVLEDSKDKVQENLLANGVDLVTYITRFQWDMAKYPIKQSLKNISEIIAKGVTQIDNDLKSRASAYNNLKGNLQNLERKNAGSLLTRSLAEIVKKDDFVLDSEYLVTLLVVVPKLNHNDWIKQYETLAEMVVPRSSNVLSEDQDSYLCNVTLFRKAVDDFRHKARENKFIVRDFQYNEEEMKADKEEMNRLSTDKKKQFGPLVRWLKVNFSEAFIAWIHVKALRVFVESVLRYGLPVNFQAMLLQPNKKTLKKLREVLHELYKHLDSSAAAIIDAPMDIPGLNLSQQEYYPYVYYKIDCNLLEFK
UniProt O43681: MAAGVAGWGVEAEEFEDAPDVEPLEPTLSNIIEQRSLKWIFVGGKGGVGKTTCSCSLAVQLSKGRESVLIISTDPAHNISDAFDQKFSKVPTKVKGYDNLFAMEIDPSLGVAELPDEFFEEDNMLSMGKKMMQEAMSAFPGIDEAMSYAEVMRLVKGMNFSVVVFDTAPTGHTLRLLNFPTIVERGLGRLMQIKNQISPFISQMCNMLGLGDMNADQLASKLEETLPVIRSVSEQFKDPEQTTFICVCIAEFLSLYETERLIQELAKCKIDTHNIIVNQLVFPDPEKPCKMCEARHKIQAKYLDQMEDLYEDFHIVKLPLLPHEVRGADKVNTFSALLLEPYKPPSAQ
UniProt P56211: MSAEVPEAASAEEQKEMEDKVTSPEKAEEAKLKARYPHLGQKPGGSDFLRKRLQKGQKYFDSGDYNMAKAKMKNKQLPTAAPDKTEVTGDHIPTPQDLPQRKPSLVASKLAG
UniProt Q9UI12, whole entry, looked up: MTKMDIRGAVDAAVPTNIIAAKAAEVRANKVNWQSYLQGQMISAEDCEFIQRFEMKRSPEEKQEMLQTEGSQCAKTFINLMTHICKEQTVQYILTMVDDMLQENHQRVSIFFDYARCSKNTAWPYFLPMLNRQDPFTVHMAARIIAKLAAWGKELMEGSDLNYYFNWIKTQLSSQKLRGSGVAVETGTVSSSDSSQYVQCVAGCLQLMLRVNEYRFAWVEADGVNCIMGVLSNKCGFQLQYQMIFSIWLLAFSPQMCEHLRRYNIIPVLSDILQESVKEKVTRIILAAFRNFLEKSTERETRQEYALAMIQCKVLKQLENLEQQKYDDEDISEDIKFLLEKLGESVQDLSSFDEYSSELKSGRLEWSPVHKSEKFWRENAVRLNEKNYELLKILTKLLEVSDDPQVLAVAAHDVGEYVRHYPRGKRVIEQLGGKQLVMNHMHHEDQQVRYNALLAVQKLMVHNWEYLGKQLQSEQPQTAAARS
UniProt P54707, whole entry, looked up: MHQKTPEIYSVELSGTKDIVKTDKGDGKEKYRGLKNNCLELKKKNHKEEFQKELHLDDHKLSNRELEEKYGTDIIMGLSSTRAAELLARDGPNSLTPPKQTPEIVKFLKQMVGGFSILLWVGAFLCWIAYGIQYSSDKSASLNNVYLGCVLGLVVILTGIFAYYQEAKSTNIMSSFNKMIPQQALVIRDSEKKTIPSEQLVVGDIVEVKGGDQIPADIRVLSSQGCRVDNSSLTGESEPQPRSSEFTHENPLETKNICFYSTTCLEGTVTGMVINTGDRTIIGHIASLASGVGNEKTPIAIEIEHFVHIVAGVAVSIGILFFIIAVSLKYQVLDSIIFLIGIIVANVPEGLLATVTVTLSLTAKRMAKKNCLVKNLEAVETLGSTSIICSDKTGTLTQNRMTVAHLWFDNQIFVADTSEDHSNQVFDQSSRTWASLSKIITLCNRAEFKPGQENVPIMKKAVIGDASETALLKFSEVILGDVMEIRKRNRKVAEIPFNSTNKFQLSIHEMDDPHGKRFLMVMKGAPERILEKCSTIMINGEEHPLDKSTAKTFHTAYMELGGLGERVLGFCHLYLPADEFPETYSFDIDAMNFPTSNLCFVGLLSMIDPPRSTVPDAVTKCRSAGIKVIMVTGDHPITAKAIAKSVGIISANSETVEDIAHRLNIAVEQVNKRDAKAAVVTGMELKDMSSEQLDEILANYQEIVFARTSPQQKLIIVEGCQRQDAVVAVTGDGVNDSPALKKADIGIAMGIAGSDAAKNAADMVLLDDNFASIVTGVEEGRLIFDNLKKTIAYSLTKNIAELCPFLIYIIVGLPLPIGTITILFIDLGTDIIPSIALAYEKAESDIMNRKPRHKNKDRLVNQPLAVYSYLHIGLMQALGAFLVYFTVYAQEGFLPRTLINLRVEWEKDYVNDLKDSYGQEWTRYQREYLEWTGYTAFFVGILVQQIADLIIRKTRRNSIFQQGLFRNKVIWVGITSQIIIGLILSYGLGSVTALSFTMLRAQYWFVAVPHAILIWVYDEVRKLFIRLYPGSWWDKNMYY
UniProt Q5T9A4: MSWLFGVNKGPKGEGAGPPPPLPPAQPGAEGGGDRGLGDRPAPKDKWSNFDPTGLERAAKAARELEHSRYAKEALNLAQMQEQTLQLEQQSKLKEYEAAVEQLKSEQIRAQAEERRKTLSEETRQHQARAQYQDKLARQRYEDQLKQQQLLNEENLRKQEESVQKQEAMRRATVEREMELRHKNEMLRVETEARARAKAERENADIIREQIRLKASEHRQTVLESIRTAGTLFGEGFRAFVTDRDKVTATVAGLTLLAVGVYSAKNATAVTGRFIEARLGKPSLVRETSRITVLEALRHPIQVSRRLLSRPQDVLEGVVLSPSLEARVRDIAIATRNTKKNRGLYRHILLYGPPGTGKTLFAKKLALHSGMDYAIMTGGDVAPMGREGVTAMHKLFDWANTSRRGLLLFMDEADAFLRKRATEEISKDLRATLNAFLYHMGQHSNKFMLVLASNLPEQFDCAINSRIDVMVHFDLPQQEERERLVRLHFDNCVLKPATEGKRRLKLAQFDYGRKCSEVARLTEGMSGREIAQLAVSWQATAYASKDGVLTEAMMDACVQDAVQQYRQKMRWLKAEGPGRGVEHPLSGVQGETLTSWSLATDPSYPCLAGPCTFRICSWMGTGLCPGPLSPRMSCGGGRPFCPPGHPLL
UniProt Q9NVI7: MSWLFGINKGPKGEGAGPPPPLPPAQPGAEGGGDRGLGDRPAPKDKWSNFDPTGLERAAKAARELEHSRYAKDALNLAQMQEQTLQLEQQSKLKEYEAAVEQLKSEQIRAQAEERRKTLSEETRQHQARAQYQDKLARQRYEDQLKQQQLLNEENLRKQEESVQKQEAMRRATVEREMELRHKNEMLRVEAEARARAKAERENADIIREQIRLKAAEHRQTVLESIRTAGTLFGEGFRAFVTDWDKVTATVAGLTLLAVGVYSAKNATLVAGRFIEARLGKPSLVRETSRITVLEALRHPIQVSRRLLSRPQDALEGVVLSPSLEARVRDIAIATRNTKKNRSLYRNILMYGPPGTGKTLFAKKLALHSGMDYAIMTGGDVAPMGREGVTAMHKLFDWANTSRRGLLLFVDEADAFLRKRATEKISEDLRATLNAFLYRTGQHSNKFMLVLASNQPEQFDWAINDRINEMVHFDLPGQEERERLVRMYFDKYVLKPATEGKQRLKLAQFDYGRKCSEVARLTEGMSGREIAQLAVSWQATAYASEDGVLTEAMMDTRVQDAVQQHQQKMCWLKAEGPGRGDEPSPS

Legend:
Assay in all cases: log2 fold change, soluble protein after heating vs DMSO (PISA); higher = thermal stabilisation; K562 cells, 10 uM, 30 min; active = over 0.2 and 3.5 SD of the protein, either way, in both replicates (recomputed)
[1] = compound: CC[C@@H]1C(=O)N(C)c2cnc(Nc3ccc(C(=O)NC4CCN(C)CC4)cc3OC)nc2N1C1CCCC1
How it was run: (§1)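 K562 cells (2×10^6 cells/mL) were treated with 10 μM compound for 30 min, and aliquots were heated for 3 min over 48°C-58°C. Pooled aliquots were extracted in PBS with 0.5% NP-40 at 4°C, and the supernatant after 21,000xg for 90 min was measured by TMTpro 16plex LC-MS/MS with channel sums equalised. Reported thermal stability, relative to control samples and from duplicates, is a log2 fold change.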

volasertib = compound: CC[C@@H]1C(=O)N(C)c2cnc(Nc3ccc(C(=O)N[C@H]4CC[C@H](N5CCN(CC6CC6)CC5)CC4)cc3OC)nc2N1C(C)C [volasertib]
How it was run: as §1

[2] = compound: CC[C@H](C)N1C=C(C2=C(C=C(C=C21)C3=CN=C(C=C3)N4CCNCC4)C(=O)NCC5=C(C=C(NC5=O)C)C)C
How it was run: as §1

epoxomicin = compound: CC[C@H](C)[C@@H](C(=O)N[C@@H]([C@@H](C)O)C(=O)N[C@@H](CC(C)C)C(=O)[C@]1(CO1)C)NC(=O)[C@H]([C@@H](C)CC)N(C)C(=O)C [epoxomicin]
How it was run: as §1

[3] = compound: CCn1cc(-c2ccnc3[nH]c(-c4cccc(CN(C)C)c4)cc23)c(-c2ccc(NC(=O)N(C)C)cc2)n1
How it was run: as §1

[4] = compound: CN(C)CC(=O)Nc1ccc2[nH]c(=O)c3ccccc3c2c1
How it was run: as §1

[5] = compound: CN1C2=C(C3=C1C(=O)N(N=C3)CC4=CC(=CC=C4)N)SC(=C2)S(=O)C
How it was run: as §1

[6] = compound: CN1CCC(CNc2ccc3ncc(-c4cccc(OC(F)(F)F)c4)n3n2)CC1
How it was run: as §1

saracatinib = compound: CN1CCN(CCOc2cc(OC3CCOCC3)c3c(Nc4c(Cl)ccc5c4OCO5)ncnc3c2)CC1 [saracatinib]
How it was run: as §1

sotrastaurin = compound: CN1CCN(c2nc(C3=C(c4c[nH]c5ccccc45)C(=O)NC3=O)c3ccccc3n2)CC1 [sotrastaurin]
How it was run: as §1

Tubastatin A = compound: CN1CCc2c(c3ccccc3n2Cc2ccc(C(=O)NO)cc2)C1 [Tubastatin A]
How it was run: as §1

[7] = compound: CNC(=O)C1=CC=CC=C1NC2=NC(=NC=C2Cl)NC3=C(C=C(C=C3)N4CCOCC4)OC
How it was run: as §1

defactinib = compound: CNC(=O)c1ccc(Nc2ncc(C(F)(F)F)c(NCc3nccnc3N(C)S(C)(=O)=O)n2)cc1 [defactinib]
How it was run: as §1

rucaparib = compound: CNCc1ccc(-c2[nH]c3cc(F)cc4c3c2CCNC4=O)cc1 [rucaparib]
How it was run: as §1

[8] = compound: CNc1nc(-c2ccc3c(N)n[nH]c3c2)cc(N2C[C@@H](C(=O)NC3CCCCC3)CC[C@H]2C)n1
How it was run: as §1

encorafenib = compound: COC(=O)N[C@@H](C)CNc1nccc(-c2cn(C(C)C)nc2-c2cc(Cl)cc(NS(C)(=O)=O)c2F)n1 [encorafenib]
How it was run: as §1

[9] = compound: COC(=O)[C@H](CCSC)NC(=O)C1=C(C=C(C=C1)NC[C@H](CS)N)C2=CC=CC=C2
How it was run: as §1

[10] = compound: CCn1c(C(=O)N(C2CC2)C2CC2)cc2c3c(ncn3C)c(Nc3cc(C)n(C)n3)nc21
How it was run: as §1

rosiglitazone = compound: CN(CCOC1=CC=C(C=C1)C[C@H]2C(=O)NC(=O)S2)C3=CC=CC=N3 (racemic) [rosiglitazone]
How it was run: as §1

alvocidib = compound: CN1CC[C@H](c2c(O)cc(O)c3c(=O)cc(-c4ccccc4Cl)oc23)[C@H](O)C1 [alvocidib]
How it was run: as §1

Measured: log2 fold change

ATP6V0A1 isoform 3 (UniProt Q93050)
inactive: [1] -0.056 | volasertib 0.174 | [2] -0.01 | epoxomicin 0.044 | [3] -0.054 | [4] -0.009 | [5] 0.239 | [6] -0.137 | saracatinib -0.253 | sotrastaurin -0.236 | Tubastatin A 0.089 | [7] -0.052 | defactinib 0.125 | rucaparib 0.154 | [8] 0.032 | encorafenib 0.196 | [9] -0.02

ATP5IF1 (UniProt Q9UII2)
inactive: [1] -0.149 | volasertib 0.141 | [2] -0.078 | epoxomicin -0.041 | [3] 0.013 | [4] -0.13 | [5] -0.04 | [6] 0.037 | saracatinib -0.111 | sotrastaurin 0.111 | Tubastatin A -0.039 | [7] -0.014 | defactinib 0.046 | rucaparib -0.011 | [8] 0.011 | encorafenib -0.063
active: [9] -0.244

ASH2L (UniProt Q9UBL3)
inactive: [1] -0.117 | [2] 0.079 | epoxomicin 0.041 | [3] -0.012 | [4] -0.003 | [5] 0.001 | [6] -0.012 | saracatinib 0.023 | sotrastaurin -0.025 | Tubastatin A 0.052 | [7] 0.023 | defactinib -0.12 | rucaparib 0.012 | [8] -0.036 | encorafenib 0.037 | [9] -0.009
active: volasertib -0.327

ATP6V1C1 (UniProt P21283)
inactive: [1] 0.027 | volasertib -0.196 | [2] 0.066 | epoxomicin 0.064 | [4] -0.008 | [5] 0.069 | saracatinib -0.193 | sotrastaurin -0.07 | Tubastatin A 0.059 | [7] -0.034 | defactinib -0.011 | rucaparib 0.137 | [8] 0.004 | encorafenib 0.083 | [9] -0.013
active: [3] -0.282 | [6] 0.377

ASNA1 (UniProt O43681)
inactive: [1] 0.01 | volasertib 0.098 | [2] -0.026 | epoxomicin -0.011 | [10] 0.06 | [3] 0.038 | [4] -0.013 | rosiglitazone -0.017 | [5] -0.038 | [6] -0.007 | saracatinib 0.025 | sotrastaurin -0.014 | alvocidib -0.015 | Tubastatin A -0.068 | [7] -0.018 | defactinib -0.005 | rucaparib -0.037 | [8] -0.016 | encorafenib 0.001 | [9] 0.017

ARPP19 (UniProt P56211)
inactive: [1] 0.013 | volasertib 0.016 | [2] -0.01 | epoxomicin 0.041 | [3] -0.052 | [4] 0.032 | [5] 0.069 | [6] -0.041 | saracatinib -0.002 | sotrastaurin 0.01 | Tubastatin A -0.047 | [7] -0.015 | defactinib -0.089 | rucaparib -0.05 | [8] -0.056 | encorafenib -0.016 | [9] 0.002

ATP6V1H (UniProt Q9UI12)
active: [3] -0.244
inactive: [1] -0.085 | volasertib -0.093 | [2] 0.069 | epoxomicin 0.098 | [4] 0.012 | [5] -0.026 | [6] -0.069 | saracatinib -0.047 | sotrastaurin -0.015 | Tubastatin A 0.046 | [7] -0.016 | defactinib -0.042 | rucaparib 0.016 | [8] 0.054 | encorafenib 0.016 | [9] -0.043

ATP12A isoform 2 (UniProt P54707)
active: [6] 0.242
inactive: [1] 0.081 | volasertib 0 | [2] -0.029 | epoxomicin 0.013 | [3] -0.031 | [4] -0.047 | [5] -0.085 | saracatinib 0.011 | sotrastaurin 0.031 | Tubastatin A -0.019 | [7] 0.002 | defactinib -0.072 | rucaparib -0.027 | [8] 0.023 | encorafenib -0.015 | [9] -0.005

ATAD3B (UniProt Q5T9A4)
active: [6] -0.339
inactive: [1] -0.076 | volasertib -0.167 | [2] 0.093 | epoxomicin -0.045 | [3] 0.112 | [4] -0.026 | [5] 0.167 | saracatinib -0.047 | sotrastaurin -0.101 | Tubastatin A -0.009 | [7] -0.084 | defactinib 0.096 | rucaparib 0.25 | [8] 0 | encorafenib 0.125 | [9] 0.033

ATAD3A isoform 2 (UniProt Q9NVI7)
active: [6] -0.319
inactive: [1] -0.145 | volasertib -0.202 | [2] 0.038 | epoxomicin 0.05 | [3] 0.033 | [4] 0.018 | [5] 0.177 | saracatinib 0.001 | sotrastaurin -0.053 | Tubastatin A 0.04 | [7] -0.139 | defactinib 0.05 | rucaparib 0.252 | [8] -0.017 | encorafenib 0.154 | [9] -0.046
